Our source for the binding values is article PMC12808826.

Sequences of proteins named here, by UniProt entry; tags and fusion partners are left off.
UniProt P46938: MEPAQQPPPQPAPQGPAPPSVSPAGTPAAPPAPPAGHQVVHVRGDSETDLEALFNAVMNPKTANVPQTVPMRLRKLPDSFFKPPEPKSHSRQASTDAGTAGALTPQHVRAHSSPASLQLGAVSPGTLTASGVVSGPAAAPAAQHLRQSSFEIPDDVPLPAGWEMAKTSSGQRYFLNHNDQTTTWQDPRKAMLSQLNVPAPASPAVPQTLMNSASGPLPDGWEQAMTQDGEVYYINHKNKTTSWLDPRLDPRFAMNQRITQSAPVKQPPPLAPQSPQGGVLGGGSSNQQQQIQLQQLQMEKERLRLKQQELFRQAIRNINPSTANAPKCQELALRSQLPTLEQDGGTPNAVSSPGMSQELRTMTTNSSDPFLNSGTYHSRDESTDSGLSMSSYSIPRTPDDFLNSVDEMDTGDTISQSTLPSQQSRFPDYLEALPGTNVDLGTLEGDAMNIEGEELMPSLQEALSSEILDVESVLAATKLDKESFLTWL
UniProt P30051: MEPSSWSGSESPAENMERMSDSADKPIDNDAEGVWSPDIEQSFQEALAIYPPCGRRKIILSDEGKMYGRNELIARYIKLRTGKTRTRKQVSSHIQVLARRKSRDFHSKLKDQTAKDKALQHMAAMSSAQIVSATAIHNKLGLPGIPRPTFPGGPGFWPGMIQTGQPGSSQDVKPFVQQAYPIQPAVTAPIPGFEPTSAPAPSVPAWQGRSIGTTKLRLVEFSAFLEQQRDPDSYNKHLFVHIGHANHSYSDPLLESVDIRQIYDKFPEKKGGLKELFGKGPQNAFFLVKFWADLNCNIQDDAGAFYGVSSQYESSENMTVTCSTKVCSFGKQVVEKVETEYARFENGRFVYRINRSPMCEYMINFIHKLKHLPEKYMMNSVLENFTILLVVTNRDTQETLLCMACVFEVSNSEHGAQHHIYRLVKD

For test [1], the target named is YAP1 (Yes-associated protein 1), endogenous in VSMCs (mouse (endogenous in primary mouse aortic VSMCs)) (UniProt P46938). As to the kind of experiment: co-IP; VSMCs transfected with siRNA of Zfp36 and Gbp2; endogenous proteins; which protein was precipitated is not told.
Test [2] deals with HA-TEAD1 (TEA domain transcription factor 1) (UniProt P30051). Nature of the test: co-IP; HEK-293T cells transfected with Flag-GBP2 plasmid and HA-TEAD1 plasmid; which protein was precipitated is not told.

These are yes or no findings as the source states them, for the method shown. In cells and extracts the contact can be indirect. Some entries that bind do so weakly or less than the wild type. For some assays here: Tags and fused reporters may be left off the sequences shown.

For the molecule “TEAD1 (TEA domain transcription factor 1), endogenous in VSMCs (from UniProt P30051 1-426)”, in test [1], the binding entry is recorded as “binds”.

B1: Flag-GBP2 (guanylate binding protein 2) (protein, UniProt Q9Z0E6 1-589)
chain: MASEIHMSEPMCLIENTEAQLVINQEALRILSAITQPVVVVAIVGLYRTGKSYLMNKLAGKRTGFSLGSTVQSHTKGIWMWCVPHPKKAGQTLVLLDTEGLEDVEKGDNQNDCWIFALAVLLSSTFIYNSIGTINQQAMDQLHYVTELTDLIKSKSSPDQSGVDDSANFVGFFPTFVWTLRDFSLELEVNGKPVTSDEYLEHSLTLKKGADKKTKSFNEPRLCIRKFFPKRKCFIFDRPAQRKQLSKLETLREEELCGEFVEQVAEFTSYILSYSSVKTLCGGIIVNGPRLKSLVQTYVGAISNGSLPCMESAVLTLAQIENSAAVQKAITHYEEQMNQKIQMPTETLQELLDLHRPIESEAIEVFLKNSFKDVDQKFQTELGNLLVAKRDAFIKKNMDVSSARCSDLLEDIFGPLEEEVKLGTFSKPGGYYLFLQMRQELEKKYNQAPGKGLQAEAMLKNYFDSKADVVETLLQTDQSLTEAAKEVEEERTKAEAAEAANRELEKKQKEFELMMQQKEKSYQEHVKKLTEKMKDEQKQLLAEQENIIAAKLREQEKFLKEGFENESKKLIREIDTLKQNKSSGKCTIL
For the molecule B1, in test [2], the binding entry is listed as “binds”.
